No constants are given. Whether binding was seen depends on the method and setting. Some entries that bind do so weakly or less than the wild type.
Columns and labels:
[1] = molecular target: His6-Rfa2(1–273) (budding yeast) (UniProt P26754); experiment: co-purification (Ni-NTA, HiTrap Heparin, Superdex200); soluble extract of E. coli co-expressing tagless Rfa1, His6-Rfa2 and tagless Rfa3 applied to Ni-NTA; 20 mM Tris-HCl pH 8.0, 350 mM NaCl; eluted with 400 mM imidazole
[2] = molecular target: His6-Rfa2(1–205) (budding yeast) (UniProt P26754); experiment: as above

By UniProt entry, the sequences of proteins in these tests, tags left out. Where a name states a change or a piece, a line headed by the entry shows the natural chain unless it says otherwise. Residues count along the entry.
UniProt P26754: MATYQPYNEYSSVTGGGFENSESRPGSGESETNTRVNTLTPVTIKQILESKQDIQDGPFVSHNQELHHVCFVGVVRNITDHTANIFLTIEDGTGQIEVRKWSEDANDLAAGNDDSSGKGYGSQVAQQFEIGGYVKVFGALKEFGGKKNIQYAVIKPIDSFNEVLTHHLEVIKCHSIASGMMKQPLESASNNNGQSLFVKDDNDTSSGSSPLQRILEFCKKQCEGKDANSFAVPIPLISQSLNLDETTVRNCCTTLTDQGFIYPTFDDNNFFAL
His6-Rfa2(1–205): residues 1-205 of P26754
UniProt P26755: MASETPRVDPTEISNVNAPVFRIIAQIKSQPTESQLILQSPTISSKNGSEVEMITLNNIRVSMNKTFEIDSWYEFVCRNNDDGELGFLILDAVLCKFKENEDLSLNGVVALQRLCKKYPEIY
UniProt P22336: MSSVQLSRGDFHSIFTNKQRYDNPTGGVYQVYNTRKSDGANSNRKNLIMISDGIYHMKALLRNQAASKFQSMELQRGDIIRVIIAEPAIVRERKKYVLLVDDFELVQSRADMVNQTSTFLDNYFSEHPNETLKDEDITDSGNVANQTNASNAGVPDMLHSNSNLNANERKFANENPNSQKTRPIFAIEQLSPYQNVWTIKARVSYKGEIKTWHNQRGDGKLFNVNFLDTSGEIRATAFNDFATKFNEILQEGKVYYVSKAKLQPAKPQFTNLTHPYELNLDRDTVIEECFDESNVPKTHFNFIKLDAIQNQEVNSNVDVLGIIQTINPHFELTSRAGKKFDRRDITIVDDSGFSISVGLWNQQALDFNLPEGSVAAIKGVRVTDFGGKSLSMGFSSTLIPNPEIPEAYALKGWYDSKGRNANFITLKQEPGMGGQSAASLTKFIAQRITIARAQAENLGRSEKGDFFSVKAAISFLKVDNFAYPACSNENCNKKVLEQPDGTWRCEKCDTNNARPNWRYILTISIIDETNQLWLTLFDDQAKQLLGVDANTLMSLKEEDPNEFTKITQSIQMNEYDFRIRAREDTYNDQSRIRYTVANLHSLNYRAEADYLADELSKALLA

| Substance | binding [1] | binding [2] |
| --- | --- | --- |
| Rfa3(1–122) (from UniProt P26755 1-122) | binds | binds |
| Rfa1(1–621) (from UniProt P22336 1-621) | binds | binds |
